Where a name gives a salt, the structure may show the parent alone. Some of the results follow. The calls rarely recur for the same compound in another form.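 Kinases were expressed as nanoluciferase fusions in K562 cells and luminescence was read every 4 h between 2 and 18 h as percent of control, DMSO set to 100% and a positive control to 0%. A time point counts as decreased when the signal drops significantly (2 sigma). The hit call is the authors' own, does not follow from the count of time points alone, and its rule is not shown.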

The chains behind the UniProt entries cited, without tags or fusion partners. Where a name states a change or a piece, a line headed by the entry shows the natural chain unless it says otherwise.
UniProt P50613: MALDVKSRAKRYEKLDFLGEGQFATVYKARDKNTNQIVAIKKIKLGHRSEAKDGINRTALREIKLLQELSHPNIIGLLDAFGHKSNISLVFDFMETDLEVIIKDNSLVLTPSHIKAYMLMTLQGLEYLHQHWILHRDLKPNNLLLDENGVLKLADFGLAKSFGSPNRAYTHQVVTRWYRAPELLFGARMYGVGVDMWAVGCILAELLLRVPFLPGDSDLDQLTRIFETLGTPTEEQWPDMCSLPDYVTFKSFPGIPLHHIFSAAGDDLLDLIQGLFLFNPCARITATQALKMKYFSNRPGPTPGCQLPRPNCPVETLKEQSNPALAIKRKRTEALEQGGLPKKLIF

In this assay the target is CDK7 (UniProt P50613). Nature of the assay: number of time points (of 4; 2 h point missing) at which kinase-Nluc abundance scored as decreased, DMSO-normalised (count); higher = more persistent destabilization. To be noted: 10 µM; K562; 2-18 h.
Turning to `COc1ncc(F)cc1CNc1ccc(Cc2c[nH]c3ncc(C)cc23)c(F)n1` [PLX5622 (hemifumarate)], the “number of time points” value was determined as 0. The figure for `C#Cc1cccc(Nc2ncnc3cc(OCCOC)c(OCCOC)cc23)c1` [Erlotinib] is 0; for `Oc1cccc(-c2nc(N3CCOCC3)c3oc4ncccc4c3n2)c1` it is 0. The figure for `C#Cc1cccc(Nc2ncnc3cc(OCCOC)c(OCCO)cc23)c1` [Desmethyl Erlotinib (hydrochloride)] is 0; for `C[C@@H](N)[C@H]1CC[C@H](C(=O)Nc2ccncc2)CC1` it is 0. The figure for `C#Cc1cccc(Nc2ncnc3cc4c(cc23)OCCOCCOCCO4)c1` [Icotinib] is 0; for `C#Cc1cccc(Nc2ncnc3cc4c(cc23)OCCOCCOCCO4)c1` [Icotinib (Hydrochloride)] it is 0; for `O=C(c1ccc(F)c(F)c1Nc1ccc(I)cc1F)N1CC(O)([C@@H]2CCCCN2)C1` [Cobimetinib] it is 1. For the compound `COc1cc2nccc(Nc3cc(OC)c(OC)c(OC)c3)c2cc1OC` [GAK inhibitor 49 (hydrochloride)], the “number of time points” value was 3. Then `O=C(c1ccc(F)c(F)c1Nc1ccc(I)cc1F)N1CC(O)([C@@H]2CCCCN2)C1` [Cobimetinib (hemifumarate)], with 2. Then `C=CC(=O)Nc1cc(Nc2ncc(C(=O)OC(C)C)c(-c3cn(C)c4ccccc34)n2)c(OC)cc1N(C)CCN(C)C` [Mobocertinib (succinate)], with 0; and `CNC(=O)c1ccccc1Nc1cc(Nc2ccc(N3CCOCC3)cc2OC)ncc1C(F)(F)F` [PND-1186 (hydrochloride)], with 0.

Source of the values: the supplement of paper PMC12823440, “Inhibitors supercharge kinase turnover through native proteolytic circuits” (Nature, 2025).
